# According to PMC7822115 (Viruses, 2020):
# Experiments:
# Vero cells = conditions: African green monkey
# in vitro [1] = conditions: human
# in vitro [2] = conditions: African green monkey
structure (smiles),measurement,setting,value
"O=C(O)c1cn(C2CC2)c2cc(N3CCNCC3)c(F)cc2c1=O [Ciprofloxacin, ciprofloxacin]",Concentration at which cellular toxicity was observed,Vero cells,600 µM
same,CC50,in vitro [1],> 600 µM
same,CC50,in vitro [2],> 600 µM
same,Cellular viability / toxicity compared to the media control (in words),A549/ACE2 cells,did not impact
